System: Propionibacterium acnes ATCC 6919
Experiment: Incubation of pro-perfume glucuronide mixture with skin bacteria; remaining conjugate by LC-MS
Format: cell-based
Conditions: After 1 day, 37° C.; result in words
Method: The liberation of perfuming alcohols from the present invention's compounds of formula (I) was tested in vitro during incubation with defined skin bacteria strains.
c) Bacterial solutions: Two underarm bacterial isolates, Propionibacterium acnes ATCC 6919 and Staphylococcus warneri DSM 20316 (identified by 16S rDNA sequencing by Deutsche Sammlung von Mikroorganismen and ZellKulturen DSMZ, Germany), were cultivated on SCH agar at 37° C. during 72 h in anaerobic conditions and on TSA at 37° C. during 24 h, respectively.
One isolated colony of P. acnes from the pure primary culture on SCH agar was inoculated on a new SCH agar and incubated at 37° C., 72 h in anaerobic conditions. After incubation, the whole culture was dissociated by shaking in 20 ml of NaCl 0.9% then centrifuged 10 min at 5000 rpm at room temperature. The pellet was washed in NaCl 0.9% and concentrated two times in NaCl 0.9%. […]
The vials were placed in a heating block at 37° C. under gentle stirring from 1 to 7 days depending on the bacteria solutions. At the end of the incubation time, vials were cooled down to room temperature, 150 μL was mixed with 50 μL of LC-MS solvent B, filtered through acrodisc and 1 μL was injected on LC-MS (peak areas considered were measured in SIM mode according to their respective molecular weights). […]

CC(=O)CCc1ccc(O[C@@H]2O[C@H](C(=O)O)[C@@H](O)[C@H](O)[C@H]2O)cc1 [(4-hydroxyphenyl)-2-butanone-β-D-glucopyranosiduronic acid]
Glucuronide-conjugates remaining after incubation with Propionibacterium acnes: No transformation

— patent US10590365B2, “Compounds for a controlled release of active molecules” (FIRMENICH SA, priority 2013, dated 2020)
